# Reference: the supplement of paper PMC8728848
# The other results are listed elsewhere or left out.
# Assays:
# Assay in all cases: glycan array binding signal (z-score within array); higher = stronger binding
# Details in all cases: glycan notation: IUPAC condensed, linker removed
# [1] = target: Gal(b1-2)Gal
# How it was run: (§1)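 Glycan array data came from 3228 arrays in the Consortium for Functional Glycomics database, and only arrays with an available protein sequence were kept. Glycan names were put into IUPAC-condensed notation, and columns mapping to the same glycan were averaged. The binding signal is a within-array Z-score, averaged across arrays of one protein sequence run at different concentrations or buffers and across linkers. A negative Z-score can be read as non-binding.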
# [2] = target: Gal(b1-3)Gal
# How it was run: as §1
# [3] = target: Gal(b1-3)Gal(b1-4)GlcNAc
# How it was run: as §1
# [4] = target: Gal(b1-3)GalNAc
# How it was run: as §1
# [5] = target: Gal(b1-3)GalNAc(a1-3)[Fuc(a1-2)]Gal(b1-4)Glc
# How it was run: as §1
# [6] = target: Gal(b1-3)GalNAc(a1-3)[Fuc(a1-2)]Gal(b1-4)GlcNAc
# How it was run: as §1
# [7] = target: Gal(b1-3)GalNAc(b1-3)Gal
# How it was run: as §1
# [8] = target: Gal(b1-3)GalNAc(b1-3)Gal(a1-4)Gal(b1-4)Glc
# How it was run: as §1
# [9] = target: Gal(b1-3)GalNAc(b1-4)Gal(b1-4)Glc
# How it was run: as §1
# [10] = target: Gal(b1-3)GalNAc(b1-4)[Neu5Ac(a2-3)]Gal(b1-4)Glc
# How it was run: as §1
# [11] = target: Gal(b1-3)GlcNAc
# How it was run: as §1
# [12] = target: Gal(b1-3)GlcNAc(a1-3)Gal(b1-4)GlcNAc
# How it was run: as §1
# [13] = target: Gal(b1-3)GlcNAc(a1-6)Gal(b1-4)GlcNAc
# How it was run: as §1
# [14] = target: Gal(b1-3)GlcNAc(b1-2)Man
# How it was run: as §1
# [15] = target: Gal(b1-3)GlcNAc(b1-2)Man(a1-3)[Gal(b1-3)GlcNAc(b1-2)Man(a1-6)]Man(b1-4)GlcNAc(b1-4)GlcNAc
# How it was run: as §1
# [16] = target: Gal(b1-3)GlcNAc(b1-2)Man(a1-3)[Gal(b1-3)GlcNAc(b1-2)Man(a1-6)]Man(b1-4)GlcNAc(b1-4)[Fuc(a1-6)]GlcNAc
# How it was run: as §1
# [17] = target: Gal(b1-3)GlcNAc(b1-2)Man(a1-3)[GlcNAc(b1-4)][Gal(b1-3)GlcNAc(b1-2)Man(a1-6)]Man(b1-4)GlcNAc(b1-4)GlcNAc
# How it was run: as §1
# [18] = target: Gal(b1-3)GlcNAc(b1-2)[Gal(b1-3)GlcNAc(b1-6)]Man(a1-6)[Gal(b1-3)GlcNAc(b1-2)Man(a1-3)]Man(b1-4)GlcNAc(b1-4)GlcNAc
# How it was run: as §1
# [19] = target: Gal(b1-3)GlcNAc(b1-3)Gal(b1-3)GlcNAc
# How it was run: as §1
# [20] = target: Gal(b1-3)GlcNAc(b1-3)Gal(b1-4)Glc
# How it was run: as §1
# [21] = target: Gal(b1-3)GlcNAc(b1-3)Gal(b1-4)GlcNAc
# How it was run: as §1
# [22] = target: Gal(b1-3)GlcNAc(b1-3)Gal(b1-4)GlcNAc(b1-2)Man(a1-3)[Gal(b1-3)GlcNAc(b1-3)Gal(b1-4)GlcNAc(b1-2)Man(a1-6)]Man(b1-4)GlcNAc(b1-4)GlcNAc
# How it was run: as §1
# [23] = target: Gal(b1-3)GlcNAc(b1-3)Gal(b1-4)GlcNAc(b1-2)[Gal(b1-3)GlcNAc(b1-3)Gal(b1-4)GlcNAc(b1-6)]Man(a1-6)[Gal(b1-3)GlcNAc(b1-3)Gal(b1-4)GlcNAc(b1-2)Man(a1-3)]Man(b1-4)GlcNAc(b1-4)[Fuc(a1-6)]GlcNAc
# How it was run: as §1
# [24] = target: Gal(b1-3)GlcNAc(b1-3)Gal(b1-4)GlcNAc(b1-3)Gal(b1-4)GlcNAc(b1-2)[Gal(b1-3)GlcNAc(b1-3)Gal(b1-4)GlcNAc(b1-3)Gal(b1-4)GlcNAc(b1-6)]Man(a1-6)[Gal(b1-3)GlcNAc(b1-3)Gal(b1-4)GlcNAc(b1-3)Gal(b1-4)GlcNAc(b1-2)Man(a1-3)]Man(b1-4)GlcNAc(b1-4)[Fuc(a1-6)]GlcNAc
# How it was run: as §1
# [25] = target: Gal(b1-3)GlcNAc(b1-3)Gal(b1-4)GlcNAc(b1-6)[Gal(b1-3)GlcNAc(b1-3)]Gal(b1-4)Glc
# How it was run: as §1
# [26] = target: Gal(b1-3)GlcNAc(b1-3)Gal(b1-4)[Fuc(a1-3)]GlcNAc
# How it was run: as §1
# [27] = target: Gal(b1-3)GlcNAc(b1-3)Gal(b1-4)[Fuc(a1-3)]GlcNAc(b1-6)[Gal(b1-3)GlcNAc(b1-3)]Gal(b1-4)Glc
# How it was run: as §1
# [28] = target: Gal(b1-3)GlcNAc(b1-3)GalNAc
# How it was run: as §1
# [29] = target: Gal(b1-3)GlcNAc(b1-6)Gal(b1-4)GlcNAc
# How it was run: as §1
# [30] = target: Gal(b1-3)GlcNAc(b1-6)GalNAc
# How it was run: as §1
# [31] = target: Gal(b1-3)GlcNAc(b1-6)[Gal(b1-3)]GalNAc
# How it was run: as §1
# [32] = target: Gal(b1-3)GlcNAc6S
# How it was run: as §1
# [33] = target: Gal(b1-3)[Fuc(a1-4)]GlcNAc
# How it was run: as §1
# [34] = target: Gal(b1-3)[Fuc(a1-4)]GlcNAc(b1-2)Man
# How it was run: as §1
# [35] = target: Gal(b1-3)[Fuc(a1-4)]GlcNAc(b1-2)Man(a1-3)[Gal(b1-3)[Fuc(a1-4)]GlcNAc(b1-2)Man(a1-6)]Man(b1-4)GlcNAc(b1-4)[Fuc(a1-6)]GlcNAc
# How it was run: as §1
# [36] = target: Gal(b1-3)[Fuc(a1-4)]GlcNAc(b1-3)Gal(b1-3)[Fuc(a1-4)]GlcNAc
# How it was run: as §1
# [37] = target: Gal(b1-3)[Fuc(a1-4)]GlcNAc(b1-3)Gal(b1-4)[Fuc(a1-3)]GlcNAc
# How it was run: as §1
# [38] = target: Gal(b1-3)[Fuc(a1-4)]GlcNAc(b1-6)GalNAc
# How it was run: as §1
# [39] = target: Gal(b1-3)[GlcNAc(b1-6)]GalNAc
# How it was run: as §1
# [40] = target: Gal(b1-3)[Neu5Ac(a2-6)]GalNAc
# How it was run: as §1
# [41] = target: Gal(b1-3)[Neu5Ac(a2-6)]GlcNAc(b1-4)Gal(b1-4)Glc
# How it was run: as §1
# [42] = target: Gal(b1-3)[Neu5Ac(b2-6)]GalNAc
# How it was run: as §1
# [43] = target: Gal(b1-4)Gal
# How it was run: as §1
# [44] = target: Gal(b1-4)GalNAc(a1-3)[Fuc(a1-2)]Gal(b1-4)GlcNAc
# How it was run: as §1
# [45] = target: Gal(b1-4)GalNAc(b1-3)[Fuc(a1-2)]Gal(b1-4)GlcNAc
# How it was run: as §1
binder,measurement,setting,value
"MXA PilAct-eGFP (Myxococcus xanthus), Q59589 (protein) MRVSRFNPRNRGFTLIELMIVVAIIGILAAIAIPNFIKFQARSKQSEAKTNLKALYTAQKSFFSEKDRYSDFANEIGFAPERGNRYGYRVSAAAGDCEVRNAADLPVPAAGVPCISNDSFRFGANSAIDDPTPVVARFVPQGAAGWNTTLGVQPTIADCPNCNFFAGARGNADNEATFDDWVIAGFEGSGQVGPCSEAGNVASGTPYNTRNDVACDGAAQ",glycan array binding signal (z-score),[1],-0.533
same,glycan array binding signal (z-score),[2],-0.782
same,glycan array binding signal (z-score),[3],0.335
same,glycan array binding signal (z-score),[4],-0.582
same,glycan array binding signal (z-score),[5],-0.888
same,glycan array binding signal (z-score),[6],-1.12
same,glycan array binding signal (z-score),[7],-0.318
same,glycan array binding signal (z-score),[8],-1.31
same,glycan array binding signal (z-score),[9],-0.52
same,glycan array binding signal (z-score),[10],-0.298
same,glycan array binding signal (z-score),[11],0.97
same,glycan array binding signal (z-score),[12],-1.01
same,glycan array binding signal (z-score),[13],-1.44
same,glycan array binding signal (z-score),[14],-0.797
same,glycan array binding signal (z-score),[15],1.79
same,glycan array binding signal (z-score),[16],0.709
same,glycan array binding signal (z-score),[17],0.003
same,glycan array binding signal (z-score),[18],-0.515
same,glycan array binding signal (z-score),[19],1.12
same,glycan array binding signal (z-score),[20],-0.12
same,glycan array binding signal (z-score),[21],0.458
same,glycan array binding signal (z-score),[22],1.88
same,glycan array binding signal (z-score),[23],6.11
same,glycan array binding signal (z-score),[24],4.94
same,glycan array binding signal (z-score),[25],0.239
same,glycan array binding signal (z-score),[26],-0.043
same,glycan array binding signal (z-score),[27],-0.452
same,glycan array binding signal (z-score),[28],-0.342
same,glycan array binding signal (z-score),[29],-0.705
same,glycan array binding signal (z-score),[30],0.366
same,glycan array binding signal (z-score),[31],1.55
same,glycan array binding signal (z-score),[32],0.063
same,glycan array binding signal (z-score),[33],-0.56
same,glycan array binding signal (z-score),[34],0.913
same,glycan array binding signal (z-score),[35],-0.259
same,glycan array binding signal (z-score),[36],-2.03
same,glycan array binding signal (z-score),[37],0.781
same,glycan array binding signal (z-score),[38],-1.4
same,glycan array binding signal (z-score),[39],-0.78
same,glycan array binding signal (z-score),[40],-0.062
same,glycan array binding signal (z-score),[41],0.129
same,glycan array binding signal (z-score),[42],-1.02
same,glycan array binding signal (z-score),[43],-1.28
same,glycan array binding signal (z-score),[44],0.225
same,glycan array binding signal (z-score),[45],-0.793

# 3 consecutive records from above, for reference:
binder,measurement,setting,value
"MXA PilAct-eGFP (Myxococcus xanthus), Q59589 (protein) MRVSRFNPRNRGFTLIELMIVVAIIGILAAIAIPNFIKFQARSKQSEAKTNLKALYTAQKSFFSEKDRYSDFANEIGFAPERGNRYGYRVSAAAGDCEVRNAADLPVPAAGVPCISNDSFRFGANSAIDDPTPVVARFVPQGAAGWNTTLGVQPTIADCPNCNFFAGARGNADNEATFDDWVIAGFEGSGQVGPCSEAGNVASGTPYNTRNDVACDGAAQ",glycan array binding signal (z-score),[17],0.003
same,glycan array binding signal (z-score),[18],-0.515
same,glycan array binding signal (z-score),[19],1.12
